Test results from article PMC12902025.
These are yes or no findings as the source states them, for the method shown. Binding seen in cells or lysates may run through a third protein. Some entries that bind do so weakly or less than the wild type.

The chains behind the UniProt entries cited, without tags or fusion partners. Residues count along the entry.
UniProt P06731, residues 35-685: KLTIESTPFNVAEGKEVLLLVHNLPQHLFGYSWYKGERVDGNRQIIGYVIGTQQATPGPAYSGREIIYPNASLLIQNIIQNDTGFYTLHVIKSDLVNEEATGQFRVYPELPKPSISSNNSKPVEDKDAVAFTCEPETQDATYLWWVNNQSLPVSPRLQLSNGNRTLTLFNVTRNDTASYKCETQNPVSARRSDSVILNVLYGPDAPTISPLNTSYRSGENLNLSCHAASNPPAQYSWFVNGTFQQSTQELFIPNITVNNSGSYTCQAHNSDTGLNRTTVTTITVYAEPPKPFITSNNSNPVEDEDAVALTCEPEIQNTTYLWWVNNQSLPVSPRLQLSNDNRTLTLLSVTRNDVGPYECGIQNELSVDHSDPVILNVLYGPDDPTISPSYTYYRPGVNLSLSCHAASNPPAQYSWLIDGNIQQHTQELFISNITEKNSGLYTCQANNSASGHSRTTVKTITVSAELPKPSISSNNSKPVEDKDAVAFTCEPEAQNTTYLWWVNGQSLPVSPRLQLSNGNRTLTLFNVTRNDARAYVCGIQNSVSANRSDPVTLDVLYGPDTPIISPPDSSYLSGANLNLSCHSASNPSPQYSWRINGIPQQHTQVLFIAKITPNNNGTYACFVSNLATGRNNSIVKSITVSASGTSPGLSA
UniProt P06733: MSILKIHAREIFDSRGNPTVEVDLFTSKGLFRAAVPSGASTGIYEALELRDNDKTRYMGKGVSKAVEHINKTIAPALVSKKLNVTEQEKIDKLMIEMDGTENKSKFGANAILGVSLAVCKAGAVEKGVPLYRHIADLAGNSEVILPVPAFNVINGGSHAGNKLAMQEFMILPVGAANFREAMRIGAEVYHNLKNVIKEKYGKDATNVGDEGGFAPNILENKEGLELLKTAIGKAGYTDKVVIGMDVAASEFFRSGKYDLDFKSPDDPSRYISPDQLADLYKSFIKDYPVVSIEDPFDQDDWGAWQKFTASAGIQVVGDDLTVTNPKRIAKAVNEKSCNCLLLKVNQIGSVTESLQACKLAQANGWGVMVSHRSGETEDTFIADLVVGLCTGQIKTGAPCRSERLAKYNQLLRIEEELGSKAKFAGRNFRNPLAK
UniProt P09104: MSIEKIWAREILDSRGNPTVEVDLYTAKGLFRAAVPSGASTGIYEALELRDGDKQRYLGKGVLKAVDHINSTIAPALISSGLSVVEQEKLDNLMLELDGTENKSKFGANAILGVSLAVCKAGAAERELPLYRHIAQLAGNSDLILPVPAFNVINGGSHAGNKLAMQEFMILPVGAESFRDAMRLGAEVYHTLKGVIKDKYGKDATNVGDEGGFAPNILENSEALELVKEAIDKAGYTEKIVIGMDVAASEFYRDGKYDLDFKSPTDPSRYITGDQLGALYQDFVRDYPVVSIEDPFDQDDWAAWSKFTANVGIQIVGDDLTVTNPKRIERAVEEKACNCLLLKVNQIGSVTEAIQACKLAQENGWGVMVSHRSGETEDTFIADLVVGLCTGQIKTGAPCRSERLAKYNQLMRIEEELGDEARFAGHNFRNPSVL

T1: HSPA13 (UniProt P48723)
T1 sequence: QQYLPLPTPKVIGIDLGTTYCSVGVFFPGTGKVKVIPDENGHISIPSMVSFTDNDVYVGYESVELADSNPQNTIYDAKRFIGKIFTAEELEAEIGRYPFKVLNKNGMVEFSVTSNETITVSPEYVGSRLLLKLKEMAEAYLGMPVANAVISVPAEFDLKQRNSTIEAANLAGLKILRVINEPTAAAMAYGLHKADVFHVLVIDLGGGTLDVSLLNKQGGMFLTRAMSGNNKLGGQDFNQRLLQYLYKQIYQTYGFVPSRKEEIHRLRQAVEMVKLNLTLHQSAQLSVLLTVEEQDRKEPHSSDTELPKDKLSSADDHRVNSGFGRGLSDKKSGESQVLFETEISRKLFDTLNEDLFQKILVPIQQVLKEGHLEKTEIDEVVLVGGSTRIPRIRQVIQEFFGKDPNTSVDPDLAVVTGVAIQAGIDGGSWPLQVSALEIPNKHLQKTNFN

B1: transforming growth factor beta induced (TGFBI) (protein, UniProt Q15582 24-683)
chain: GPAKSPYQLVLQHSRLRGRQHGPNVCAVQKVIGTNRKYFTNCKQWYQRKICGKSTVISYECCPGYEKVPGEKGCPAALPLSNLYETLGVVGSTTTQLYTDRTEKLRPEMEGPGSFTIFAPSNEAWASLPAEVLDSLVSNVNIELLNALRYHMVGRRVLTDELKHGMTLTSMYQNSNIQIHHYPNGIVTVNCARLLKADHHATNGVVHLIDKVISTITNNIQQIIEIEDTFETLRAAVAASGLNTMLEGNGQYTLLAPTNEAFEKIPSETLNRILGDPEALRDLLNNHILKSAMCAEAIVAGLSVETLEGTTLEVGCSGDMLTINGKAIISNKDILATNGVIHYIDELLIPDSAKTLFELAAESDVSTAIDLFRQAGLGNHLSGSERLTLLAPLNSVFKDGTPPIDAHTRNLLRNHIIKDQLASKYLYHGQTLETLGGKKLRVFVYRNSLCIENSCIAAHDKRGRYGTLFTMDRVLTPPMGTVMDVLKGDNRFSMLVAAIQSAGLTETLNREGVYTVFAPTNEAFRALPPRERSRLLGDAKELANILKYHIGDEILVSGGIGALVRLKSLQGDKLEVSLKNNVVSVNKEPVAEPDIMATNGVVHVITNVLQPPANRPQERGDELADSALEIFKQASAFSRASQRSVRLAPVYQKLLERMKH
B2: GPC1 (protein, UniProt P35052 24-530)
chain: DPASKSRSCGEVRQIYGAKGFSLSDVPQAEISGEHLRICPQGYTCCTSEMEENLANRSHAELETALRDSSRVLQAMLATQLRSFDDHFQHLLNDSERTLQATFPGAFGELYTQNARAFRDLYSELRLYYRGANLHLEETLAEFWARLLERLFKQLHPQLLLPDDYLDCLGKQAEALRPFGEAPRELRLRATRAFVAARSFVQGLGVASDVVRKVAQVPLGPECSRAVMKLVYCAHCLGVPGARPCPDYCRNVLKGCLANQADLDAEWRNLLDSMVLITDKFWGTSGVESVIGSVHTWLAEAINALQDNRDTLTAKVIQGCGNPKVNPQGPGPEEKRRRGKLAPRERPPSGTLEKLVSEAKAQLRDVQDFWISLPGTLCSEKMALSTASDDRCWNGMARGRYLPEVMGDGLANQINNPEVEVDITKPDMTIRQQIMQLKIMTNRLRSAYNGNDVDFQDASDDGSGSGSGDGCLDDLCSRKVSRKSSSSRTPLTHALPGLSEQEGQKTS

These molecules were tested against T1, HSPA13 (assay: co-IP; HSPA13 immunoprecipitation on isolated supermere fractions (intact particles); depletion of the other proteins from the supermere fraction relative to isotype control).

binding, binds:
CEA (CEACAM5) (from UniProt P06731 35-685)
ENO1 (from UniProt P06733 1-434)
ENO2 (from UniProt P09104 1-434)
B1
B2
